Data: the supplement of paper PMC12873370
“And” between values parts separate entries of the source, which are not always exact repeats. Equal values may be shown once. The list shows a part of the results. Single values are uncertain, as repeats are few or missing.

Experiments:
[1] = system: MEPP (mouse ovarian epithelium Trp53/Pten KO); experiment: cell viability relative to untreated (fraction); higher = less growth inhibition; settings: 5 µM; 3 days
[2] = system: PREPP (mouse prostate epithelium Trp53/Pten KO); experiment: as above; settings: 5 µM; 3 days

| Compound | cell viability [1] | cell viability [2] |
| --- | --- | --- |
| CCCSc1ccc2[nH]c(NC(=O)OC)nc2c1 | 0.665 | 0.692 |
| N=C(N)NCCC[C@H](N)C(=O)O | 1.27 | 1.07 |
| N=C(N)NCCCCN | 0.877 | 0.92 |
| COc1ccc(-c2coc3cc(O[C@@H]4O[C@H](CO)[C@@H](O)[C@H](O)[C@H]4O)ccc3c2=O)cc1O | 1.43 | 0.883 |
| Cc1occc(=O)c1O | 0.929 | 0.946 |
| CC(C)=CCCC(C)(O)C1CCC2(C)C1C(O)CC1C3(C)CCC(O)C(C)(C)C3CCC12C (stereo not given) | 0.975 | 0.909 |
| CCCCCC=CCC=CCCCCCCCC(=O)OC(COC(=O)CCCCCCCCCCCCCCC)COP(=O)([O-])OCC[N+](C)(C)C (stereo not given) | 0.879 | 0.981 |
| O=C(O)CCCCC1CCSS1 (stereo not given) | 1.08 and 1 and 0.982 | 1.01 and 0.796 and 0.918 |
| CC1=CC(=O)CC(C)(C)C1(O)/C=C/C(C)=C\C(=O)O (stereo not given) | 0.862 | 0.97 |
| COc1cc2oc(-c3ccc(O)cc3)cc(=O)c2c(O)c1[C@@H]1O[C@H](CO)[C@@H](O)[C@H](O)[C@H]1O[C@@H]1O[C@H](CO)[C@@H](O)[C@H](O)[C@H]1O | 0.961 | 1.06 |
| NC1(C(=O)O)CC1 | 1.06 | 0.878 |
| Clc1ccccc1C(c1ccccc1)(c1ccccc1)n1ccnc1 | 1.29 | 0.842 |
| CCc1ccc(CCOc2ccc(CC3SC(=O)NC3=O)cc2)nc1 (stereo not given) | 1.05 | 0.852 |
| CC(C)CC(N)=O | 1.18 | 0.836 |
| O=C(O)CCCc1c[nH]c2ccccc12 | 0.832 | 0.829 |
| O=c1cc(-c2ccccc2)oc2cc(O)c(O)c(O)c12 | 1.27 | 1.21 |
| CC(=O)CCCCn1c(=O)c2c(ncn2C)n(C)c1=O | 0.983 | 0.578 |
| COc1c(N2CCNC(C)C2)c(F)cc2c(=O)c(C(=O)O)cn(C3CC3)c12 (stereo not given) | 1.06 | 0.723 |
| O=C(/C=C/c1ccc(O)c(O)c1)O[C@@H]1C[C@](O)(C(=O)O)C[C@@H](O)[C@H]1O | 0.84 | 1.2 |
| COc1cc2ccc(=O)oc2cc1OC | 1.09 | 0.894 |
| CCOC(=O)/C=C/c1ccc(O)c(OC)c1 | 1.15 | 1.13 |
| CN(C)[C@@H]1C(O)=C(C(N)=O)C(=O)[C@@]2(O)C(O)=C3C(=O)c4c(O)cccc4[C@@](C)(O)[C@H]3[C@H](O)[C@@H]12 | 0.948 and 0.893 | 0.939 and 0.913 |
| CC(=O)Oc1cccc2c1C(=O)c1c(OC(C)=O)cc(C(=O)O)cc1C2=O | 1.43 | 0.92 |
| CC(=O)N[C@H]1[C@H]([C@@H](O)[C@@H](O)CO)O[C@@](O)(C(=O)O)C[C@@H]1O | 0.901 | 1.1 |
| CCCCCCCCC(=O)O | 1.08 | 0.84 |
| NC[C@H](O)c1ccc(O)c(O)c1 | 0.907 | 0.953 |
| O=C(O)c1ccccc1 | 1.02 | 0.848 |
| O=C(O)CC(O)C(=O)O (stereo not given) | 1.27 and 0.948 | 0.655 and 0.941 |

| Compound | cell viability [1] | cell viability [2] |
| --- | --- | --- |
| O=C(Nc1ncc([N+](=O)[O-])s1)c1ccccc1O | 0.768 | 0.987 |
| CC(C)C[C@H](N)C(=O)O | 0.828 | 0.974 |
| OCC1OC(O)CC(O)C1O (stereo not given) | 0.991 | 0.894 |
| C[C@H](CC[C@@]1(O)O[C@H]2C[C@H]3[C@@H]4CC=C5C[C@@H](O[C@@H]6O[C@H](CO)[C@@H](O[C@@H]7O[C@@H](C)[C@H](O)[C@@H](O)[C@H]7O)[C@H](O)[C@H]6O[C@@H]6O[C@@H](C)[C@H](O)[C@@H](O)[C@H]6O)CC[C@]5(C)[C@H]4CC[C@]3(C)[C@H]2[C@@H]1C)CO[C@@H]1O[C@H](CO)[C@@H](O)[C@H](O)[C@H]1O | 0.86 | 0.93 |
| CNC(=N)NCCC[C@H](N)C(=O)O | 0.772 | 0.98 |
| Cc1c(N)c(=O)n(-c2ccccc2)n1C | 0.982 | 0.839 |
| CN(C)CCn1nnnc1SCC1=C(C(=O)O)N2C(=O)[C@@H](NC(=O)Cc3csc(N)n3)[C@H]2SC1 | 1.17 | 1.01 |
| O=C(O)c1cc(=O)c2cccc(O)c2[nH]1 | 0.843 | 0.837 |
| CC(O)C(=O)O (stereo not given) | 1.63 | 0.863 |
| c1ccc2c(Cc3c[nH]c4ccccc34)c[nH]c2c1 | 1.07 | 0.902 |
| COc1ccc(-c2coc3cc(O)ccc3c2=O)cc1O | 1.7 | 0.917 |
| Nc1ccn([C@H]2C[C@H](O)[C@@H](CO)O2)c(=O)n1 | 0.896 | 0.89 |
| O=C1C[C@@H](C(=O)O)NC(=O)N1 | 0.955 | 0.956 |
| CCCCC1OC(=O)c2ccccc21 (stereo not given) | 0.855 | 1.08 |
| COc1cc(/C=C/C(=O)O)ccc1O | 0.999 and 0.944 | 1.13 and 1.16 |
| O=C1c2c(O)cccc2Cc2cccc(O)c21 | 0.98 | 1.08 |
| O=C(O)c1cc(=O)cc(C(=O)O)[nH]1 | 0.974 | 1.05 |
| C[C@H]1COc2c(C3(N)CC3)c(F)cc3c(=O)c(C(=O)O)cn1c23 | 0.902 | 0.941 |
| CC1=CC[C@@](O)(C(C)C)CC1 | 1.16 | 1.02 |
| Cc1coc2c1C(=O)C(=O)c1c-2ccc2c1CCCC2(C)C | 0.975 | 1.22 |
| CCCCc1ccc(O)cc1O | 0.864 | 1.19 |
| CCOC(=O)O[C@]1(C(=O)OCCl)CC[C@H]2[C@@H]3CCC4=CC(=O)C=C[C@]4(C)[C@H]3[C@@H](O)C[C@@]21C | 1.15 | 0.874 |
| COc1ccc([C@@H]2CC(=O)c3c(O)cc(O[C@@H]4O[C@H](CO[C@@H]5O[C@@H](C)[C@H](O)[C@@H](O)[C@H]5O)[C@@H](O)[C@H](O)[C@H]4O)cc3O2)cc1O | 0.933 | 1.48 |
| Cc1c(C(N)=O)cc([N+](=O)[O-])cc1[N+](=O)[O-] | 1.15 | 0.924 |
| CN(C)N(C)C(=O)[C@@]1(Cc2ccccc2)CCCN(C(=O)[C@@H](Cc2c[nH]c3ccccc23)NC(=O)C(C)(C)N)C1 | 1.26 | 0.855 |
| COc1ccc(-c2cc(=S)ss2)cc1 | 0.939 | 0.899 |
| CC(=O)OC(CC(C)C1=C2C[C@H](O)C3[C@@]4(C)CCC(=O)C(C)(C)C4CC[C@]3(C)[C@@]2(C)CC1)C1OC1(C)C (stereo not given in full) | 1 | 1.01 |

13 of these compounds in another layout.
Compound	cell viability [1]	cell viability [2]
c1ccc2c(Cc3c[nH]c4ccccc34)c[nH]c2c1	1.07	0.902
COc1ccc(-c2coc3cc(O)ccc3c2=O)cc1O	1.7	0.917
Nc1ccn([C@H]2C[C@H](O)[C@@H](CO)O2)c(=O)n1	0.896	0.89
O=C1C[C@@H](C(=O)O)NC(=O)N1	0.955	0.956
CCCCC1OC(=O)c2ccccc21 (stereo not given)	0.855	1.08
COc1cc(/C=C/C(=O)O)ccc1O	0.999 and 0.944	1.13 and 1.16
O=C1c2c(O)cccc2Cc2cccc(O)c21	0.98	1.08
O=C(O)c1cc(=O)cc(C(=O)O)[nH]1	0.974	1.05
C[C@H]1COc2c(C3(N)CC3)c(F)cc3c(=O)c(C(=O)O)cn1c23	0.902	0.941
CC1=CC[C@@](O)(C(C)C)CC1	1.16	1.02
Cc1coc2c1C(=O)C(=O)c1c-2ccc2c1CCCC2(C)C	0.975	1.22
CCCCc1ccc(O)cc1O	0.864	1.19
CCOC(=O)O[C@]1(C(=O)OCCl)CC[C@H]2[C@@H]3CCC4=CC(=O)C=C[C@]4(C)[C@H]3[C@@H](O)C[C@@]21C	1.15	0.874

A few values from the list.
Value of O=C1c2c(O)cccc2Cc2cccc(O)c21 under cell viability [2]: 1.08
Value of COc1ccc(-c2cc(=S)ss2)cc1 under cell viability [1]: 0.939
